Reference: PubChem BioAssay AID330 (DTP/NCI, 2004)
The list does not hold the whole screen: it is rich in T/C values a quarter to a half above the control, in often repeated tests (any T/C) and in doses without a T/C. Further doses and runs are listed elsewhere. T/C is the treated group as % of the vehicle group. Some entries give survivors of the animals treated and no T/C: the source holds a T/C of zero for them, seemingly a mark for toxic or unscored doses. Some survivor counts are full or nearly so, which does not show that the dose was tolerated: survival well below the control is almost never listed, so the zero probably covers shortened survival too. Counts of survivors are from the toxicity check (mostly the fifth day) where no day follows; animals may have died later. Schedule codes are those of the source, taken here to give the interval after Q, in days (D) or hours (H), and the number of doses after X. Marks such as (2×) count equal records among those shown. Some entries were tested several times; their values stand side by side, smallest first. For survival time, this PubChem deposit counts one and a half times the control or more as active, and values a quarter to a half above the control carry no call in these data; other NCI protocols may use other cut-offs. Some T/C values are followed by the survivors on the day toxicity was checked, most often the fifth; without a count, all were alive then.

System: P388 leukemia ip, CD2F1 mice, survival T/C
Assay: NCI In Vivo Anticancer Drug Screen. Data for tumor model P388 Leukemia (intraperitoneal) in CD2F1 (CDF1) mice
Conditions: T/C endpoint: median survival time, higher T/C = longer survival
[1] = dose: 120.0 mg/kg/injection, schedule: Q01DX005 (ip), vehicle: saline with Tween-80
[2] = dose: 240.0 mg/kg/injection, schedule: Q01DX005 (ip), vehicle: saline with Tween-80
[3] = dose: 50.0 mg/kg/injection, schedule: Q01DX005 (ip), vehicle: Klucel (hydroxypropylcellulose) (HPC)
[4] = dose: 50.0 mg/kg/injection, schedule: Q01DX005 (ip), vehicle: saline with Tween-80
[5] = dose: 100.0 mg/kg/injection, schedule: Q01DX005 (ip), vehicle: saline with Tween-80
[6] = dose: 200.0 mg/kg/injection, schedule: Q01DX005 (ip), vehicle: Klucel (hydroxypropylcellulose) (HPC)
[7] = dose: 200.0 mg/kg/injection, schedule: Q01DX005 (ip), vehicle: saline with Tween-80
[8] = dose: 100.0 mg/kg/injection, schedule: Q01DX009 (ip), vehicle: saline with Tween-80
[9] = dose: 200.0 mg/kg/injection, schedule: Q01DX009 (ip), vehicle: saline with Tween-80
[10] = dose: 400.0 mg/kg/injection, schedule: Q01DX009 (ip), vehicle: saline with Tween-80
[11] = dose: 240.0 mg/kg/injection, schedule: Q01DX005 (ip), vehicle: Klucel (hydroxypropylcellulose) (HPC)

For `COc1ccc(-c2csc(NC(=O)Nc3nc(-c4ccc(OC)cc4)cs3)n2)cc1`, the survivor count [1] was 6 of 6 and the survivor count [2] was 6 of 6.

In the case of `CN(C)CC/C=C1\c2ccccc2Sc2ccc(Cl)cc21`, the T/C [3] is reported as 137 % of control [4 of 6 alive], the survivor count [3] is reported as 4 of 6 and the survivor count [4] is reported as 2 of 6. For the same compound, the survivor count (dose: 100.0 mg/kg/injection, schedule: Q01DX005 (ip), vehicle: Klucel (hydroxypropylcellulose) (HPC)) was 0 of 6 and 1 of 6, the survivor count [5] was 0 of 6 and the survivor count [6] was 0 of 6. For the same compound, the survivor count [7] was 0 of 6.

With `COc1cccc2c1C(=O)c1c(O)c3c(c(O)c1C2=O)CC(O)(/C(C)=N/NC(=O)c1cc(C(F)(F)F)cc(C(F)(F)F)c1)CC3OC1CC(N)C(O)C(C)O1` (configuration not stated) the T/C (dose: 0.78 mg/kg/injection, schedule: Q01DX009 (ip), vehicle: water) was 149 % of control, the T/C (dose: 1.56 mg/kg/injection, schedule: Q01DX009 (ip), vehicle: water) was 140 % of control and the survivor count (dose: 12.5 mg/kg/injection, schedule: Q01DX009 (ip), vehicle: water) was 6 of 6 (2×).

In the case of `C(=C\c1cc2ccc(C3=NCCN3)cc2[nH]1)/c1ccc(C2=NCCN2)cc1`, the T/C (dose: 12.5 mg/kg/injection, schedule: Q04DX003 (ip), vehicle: saline) is reported as 134 % of control, the T/C (dose: 25.0 mg/kg/injection, schedule: Q04DX003 (ip), vehicle: saline) is reported as 125 % of control and the T/C (dose: 100.0 mg/kg/injection, schedule: Q04DX003 (ip), vehicle: saline) is reported as 132 % of control. For the same compound, the survivor count (dose: 200.0 mg/kg/injection, schedule: Q04DX003 (ip), vehicle: saline) was 0 of 6 and the survivor count (dose: 400.0 mg/kg/injection, schedule: Q04DX003 (ip), vehicle: saline) was 1 of 6.

`CCCOC(=O)c1nc(N(CC2CCCCC2)C(=O)NC)sc1/N=C/c1ccccc1` was tested, and the survivor count [8] was 6 of 6, the survivor count [9] was 6 of 6 and the survivor count [10] was 6 of 6.

`COc1ccc2c(c1)CC1c3c(cc4c(c3-2)OCO4)CCN1C` (configuration not stated) was tested, and the survivor count [11] was 0 of 6.

With `O=c1oc2nc(-c3ccccc3)[nH]c(=O)c2c(O)c1-c1ccccc1` the survivor count [11] was 3 of 6.

`O=[N+]([O-])C1(Cl)CCC(Cl)([N+](=O)[O-])CC1` (configuration not stated) was tested, and the survivor count (dose: 400.0 mg/kg/injection, schedule: Q01DX001 (ip), vehicle: Klucel (hydroxypropylcellulose) (HPC)) was 0 of 6.

For `COc1cc2c(c(OC)c1OC)-c1ccc(SC)c(=O)cc1[C@@H](NC(=O)CO)CC2`, the T/C (dose: 0.03 mg/kg/injection, schedule: Q01DX009 (ip), vehicle: other) was 134 and 137 % of control, the T/C (dose: 0.05 mg/kg/injection, schedule: Q01DX009 (ip), vehicle: other) was 139 and 143 % of control and the T/C (dose: 0.1 mg/kg/injection, schedule: Q01DX009 (ip), vehicle: other) was 139 % of control. The survivor count (dose: 0.78 mg/kg/injection, schedule: Q01DX009 (ip), vehicle: other) was 0 of 6, the survivor count (dose: 0.8 mg/kg/injection, schedule: Q01DX009 (ip), vehicle: other) was 5 of 6 and 6 of 6 and the survivor count (dose: 1.56 mg/kg/injection, schedule: Q01DX009 (ip), vehicle: other) was 0 of 6. The survivor count (dose: 3.13 mg/kg/injection, schedule: Q01DX009 (ip), vehicle: other) was 0 of 6, the survivor count (dose: 6.25 mg/kg/injection, schedule: Q01DX009 (ip), vehicle: other) was 0 of 6 and the survivor count (dose: 12.5 mg/kg/injection, schedule: Q01DX009 (ip), vehicle: other) was 0 of 6. For the same compound, the survivor count (dose: 25.0 mg/kg/injection, schedule: Q01DX009 (ip), vehicle: other) was 0 of 6, the survivor count (dose: 50.0 mg/kg/injection, schedule: Q01DX009 (ip), vehicle: other) was 0 of 6 and the survivor count (dose: 100.0 mg/kg/injection, schedule: Q01DX009 (ip), vehicle: other) was 0 of 6. The survivor count (dose: 200.0 mg/kg/injection, schedule: Q01DX009 (ip), vehicle: other) was 0 of 6.

`C/C(=C1\C(=O)Oc2c(ccc3ccccc23)C1=O)c1ccc2ccccc2c1O` was tested, and the survivor count [5] was 6 of 6 and the survivor count [7] was 6 of 6.

For `CN1CCC(CNc2ccccc2)CC1`, the survivor count (dose: 30.0 mg/kg/injection, schedule: Q01DX005 (ip), vehicle: saline) was 0 of 6, the survivor count (dose: 60.0 mg/kg/injection, schedule: Q01DX005 (ip), vehicle: saline) was 0 of 6 and the survivor count (dose: 120.0 mg/kg/injection, schedule: Q01DX005 (ip), vehicle: saline) was 0 of 6. For the same compound, the survivor count (dose: 240.0 mg/kg/injection, schedule: Q01DX005 (ip), vehicle: saline) was 0 of 6.

For `Cc1ccc2no[n+]([O-])c2c1[N+](=O)[O-]`, the T/C [5] was 139 % of control, the T/C [7] was 140 % of control [4 of 5 alive] and the survivor count (dose: 400.0 mg/kg/injection, schedule: Q01DX005 (ip), vehicle: saline with Tween-80) was 0 of 6.

For `O=C(Nc1ccccc1)Nc1nccs1`, the survivor count [10] was 0 of 6.

For `CCO[C@H]1c2cc3c(cc2[C@@H](c2cc(OC)c(OC)c(OC)c2)[C@H]2C(=O)OC[C@@H]21)OCO3`, the survivor count [6] was 4 of 6.

For `O=C(CCCc1ccc(N(CCCl)CCCl)cc1)OCCOc1ccccc1`, the survivor count [8] was 1 of 6 and 6 of 6 and the survivor count [9] was 2 of 6.

In the case of `NNC(=O)c1cnn(-c2ccccc2)c1N`, the survivor count [1] is reported as 0 of 6 and the survivor count [2] is reported as 0 of 6.

In the case of `CC1(C)N=C(N)N=C(N)N1c1ccc(CCC(=O)Nc2ccc(S(=O)(=O)F)cc2)c(Cl)c1`, the survivor count (dose: 300.0 mg/kg/injection, schedule: Q04DX003 (ip), vehicle: saline with Tween-80) is reported as 5 of 6.

`COc1cc2c(cc1OC)C(=O)Cc1ccc3c(c1CN(C)CC2)OCO3` was tested, and the survivor count [8] was 6 of 6, the survivor count [9] was 6 of 6 and the survivor count [10] was 2 of 6.

For `Nc1nc(N)n(N)c(=S)n1`, the survivor count (dose: 200.0 mg/kg/injection, schedule: Q04DX003 (ip), vehicle: saline with Tween-80) was 2 of 5.

In the case of `CN(Cc1ccco1)NC(=O)C(=O)NCc1ccco1`, the survivor count [5] is reported as 5 of 5.

In the case of `CC(C)OC(=O)Nc1nc2ccc(C(=O)OC(C)C)cc2[nH]1`, the T/C (dose: 400.0 mg/kg/injection, schedule: Q04DX003 (ip), vehicle: saline with Tween-80) is reported as 135 [5 of 6 alive] and 136 % of control [5 of 6 alive].

`Nc1nnc(-c2ccc(Nc3nc4ccccc4[nH]3)c([N+](=O)[O-])c2)s1` was tested, and the survivor count [2] was 0 of 6.

`O=C(O)Cc1c[nH]c2c(Cl)ccc(Cl)c12` was tested, and the survivor count (dose: 400.0 mg/kg/injection, schedule: Q01DX001 (ip), vehicle: saline with Tween-80) was 0 of 6.

`CCc1nc(N)nc(N)c1-c1ccc(N)cc1` was tested, and the survivor count [5] was 0 of 6 and the survivor count [7] was 0 of 6.

With `c1ccc([P+](COC[P+](c2ccccc2)(c2ccccc2)c2ccccc2)(c2ccccc2)c2ccccc2)cc1` the survivor count (dose: 25.0 mg/kg/injection, schedule: Q01DX009 (ip), vehicle: Klucel (hydroxypropylcellulose) (HPC)) was 0 of 6.

With `O=c1c(Cl)c(Cl)oc(Cl)c1Cl` the survivor count [7] was 0 of 6.

For `C/C(=C\C(=N\N=C(N)N)c1ccc(Cl)cc1)c1ccc(Cl)cc1`, the survivor count (dose: 25.0 mg/kg/injection, schedule: Q01DX009 (ip), vehicle: saline with Tween-80) was 6 of 6, the survivor count (dose: 50.0 mg/kg/injection, schedule: Q01DX009 (ip), vehicle: saline with Tween-80) was 1 of 6 and the survivor count [8] was 0 of 6. For the same compound, the survivor count [9] was 0 of 6.

With `CCC[CH2][Sn]1([CH2]CCC)[O]C(=O)CCSCCC(=O)[O]1` the T/C (dose: 6.25 mg/kg/injection, schedule: Q01DX005 (ip), vehicle: saline with Tween-80, evaluated on day 20) was 126 % of control, the T/C (dose: 6.25 mg/kg/injection, schedule: Q01DX005 (ip), vehicle: saline with Tween-80, evaluated on day 35) was 126 % of control and the survivor count (dose: 12.5 mg/kg/injection, schedule: Q01DX005 (ip), vehicle: saline with Tween-80) was 0 of 6, 1 of 6, 2 of 6. The survivor count [4] was 0 of 6, the survivor count [5] was 0 of 6 and the survivor count [7] was 0 of 6.

For `CC(=O)/C(=C\c1ccc(/C=C(\C(C)=O)C(=O)CCN(C)C)cc1)C(=O)CCN(C)C`, the T/C [5] was 127 % of control and the T/C [7] was 135 % of control.

For `N#C/C(=C\c1ccccn1)c1ccc(Cl)cc1`, the survivor count (dose: 150.0 mg/kg/injection, schedule: Q01DX009 (none), vehicle: saline) was 6 of 6.
